Assay results taken from patent US20220195389A1, “METHODS OF IMPROVING THE LONGEVITY OF IMMUNE CELLS” (University of Houston System, priority 2019, published 2022).
At least one structure is not confirmed: it was looked up by name or label, or the drawing left a doubt.

Legend:
[1] = system: 19-28z T cells; assay: Compound C inhibition, T-cell motility assay (TIMING); format: cell-based, human; details: 10 μM dorsomorphin, 6-24 hours
[2] = system: 19-28z T cells conjugating to tumor cells; assay: Compound C inhibition, functional profiling by TIMING single-cell assay with tumor cells; format: cell-based, human; details: 10 μM
[3] = treated cells that made contact, vs untreated 19-28z T cells

c1cc(-c2cnn3cc(-c4ccc(OCCN5CCCCC5)cc4)cnc23)ccn1 [CC, dorsomorphin]
morphology of treated 19-28z T cells [1]: profound defects | persistent motility of treated 19-28z T cells [1]: profound defects | conjugation times with target cells [2, 3]: significantly longer conjugation times | induction of tumor cell apoptosis [2, 3]: delayed induction of tumor cell apoptosis | propensity to conjugate to tumor cells ([2]; vs DMSO-treated 19-28z T cells): decreased propensity to conjugate to tumor cells
